B1: Flag tagged Hyd F4 (aa 2412-2887) (domain or fragment, UniProt P51592 2412-2885)
chain: AKIPNLESVQVGTNHSKYVVPFSSILRSRTVSGSSRDQSTLQRRGSNSKILWRSARERKALNLDARPYTPPNSSDNATPESLNDHLSVHLQQIGERLYPKIHSINQTHAPKITGMLLEIPTPQLLSVISSDETLRQKVNEAIEIITFKQKSETSAQSSQPKKSPSVVVVDPVDDDNEPLFYSPGKRGFYTPRQGFASFERINAFRNIGRLIGLCLLQNELLPLFLQRHVLKYILGRKIKFHDLAFFDPALYESFRQIIQNAQTKEGEETINRMELCFVIDLMKEEGCGNRELIPGGRDVAVTSSNIFEYVRRYTEYRLIKSQEKALEALKDGVFDVLPDNSMINLTAEDLRLLLNGVGDINVSTLISYTTFNDESSEGPDKLLKFKKWFWSIVEKMNIMERQDLVYFWTGSPALPASEEGFQPLPSVTIRPADDSHLPTANTCISRLYIPLYSSKSILRSKMLMAIKSKNFGFV
B2: Flag tagged Poe-F2-ZnF (aa 1621-2040) (domain or fragment, UniProt Q9VLT5 1621-2040)
chain: NPSEESSQACDHSDSERNGALLLSFVKSLVKDQSKASQIAPPLFQALLQLGQTLISPPQEGCDFADVLQIMITLADASPARGHVALFNTTLLWLELAKLQLPDKHLKHAENVSAQLRYLSELLQSIGFRGSRQHNPPWDDELQTDIDELYDELAEEGEQDSLLDDSDEDTLNNKLCTFSQTQKEFMNQHWYHCHTCNMINTVGVCSVCARVCHKGHDVSYAKYGNFFCDCGAKEDGSCQALSRRIGSNEVRDSAGIGSYLPSHMSLLAGKKRSSLPVGQPVLTRKDSLTNERIAVLTKLLEPYRETLQHQDQWLLVVRCILEYFDLLLPSINENCMLYSIVGCHKRATAALERLHLLEQSFQVTDQLMFATLGSQEGAFENVRMNYSGDQGQTIKHLLSSGVVRRVAFCCLSSPHGRRQQ
B3: Flag tagged Poe-F1 (aa 1-1100) (domain or fragment, UniProt Q9VLT5 1-1100)
chain: MSAHSGGTDWNSVVKALILNRTGALNKNEVVNLLKAITRCEHDFFEEESNFTQFYTAFAALAADKLMQIKTICQTQICQLHDATAVLIRFIIYRLPRVSVYETKWLLGALKMLCEGRECPASASSSMFDYNAVANVLKSCKHPESTTKSIMPSSSSSGSGASNDKESPKSEIKRSRSDLSSVILQQLIAPLEPGKMTWVPLSEEVTDCTEQILAANVEYFQEQNGVDTLLDVCVSLPILNRYRSKYMETINGGKSLYLPLTQVEATAVKSSMNHMLTDLTILSQAQALIEMQPLTPSRIERLSMCGIAALYNAVLTSIATSVLGMSQASSSQKQTASTSQGSGVGGSSGGQSNKDHDDFEDQACSIVNKALEIYSNIGHMFKTSARIHVYQNHLCYGSWLLISGIQGAMGASGSGGSSSDSASKSASKATKSGSEAGTAPTTPIARVNLFKVQQGFGELNAAIANHSIKLLSELIEDLKVEAACGQSLESTELPEPAQFDILQNYSSLERIVRVLNTATLHQLFTFLATVAYRKACTLKRASAKDRTECEPISYSDSTTYFNDSLSCSDNSEEDDSESYLGHWFKETLSPETHDDNANTSTQERAEQKSALVPKLDEPHEYLDLAADIFCFLDQFLANRHAYMQRYVKAGVSDQQMLLMANIIKDFDRDVMRNESDQGSGNAPAASAGAGTSAGASTKWQTSMIRFSGAAGRYIHNLISTSLLSEQLQSNLLQHLSISPWSTDTNTWPLQVYPSTLSVLVQILLLKPTQEKEAACLSVWHRLINTLVEGVCSSNTASDSDYEDLNIEHAQLLLFLFHSLNLMQKKSILLLTAGGVIRCAEVCRGISEDRPVKNSQIMLLSRLLLFLEYLMKHLYNAPPELLDQVRWNLFSVSSMPDTQKITDLLNCRTKLNSYCRHDIEENFRKSAGEYGSSIRPTFYSLVMGDPEISYWAQEFKLDGLAWNFILCTPDKLKYPLLVDALTDILSITDMSMYSKEKDKEASMHNLCAIQYCFTIAWKLNLGLPPSTSHVESLKAERSPNLHSLMWSIRLPLASSHYLVVSSLIKQGMYTQYAETLWTHVGDIGADIKYSLKQTILGVEAF
B4: Flag tagged Poe-F2 (aa 1101-2300) (domain or fragment, UniProt Q9VLT5 1101-2300)
chain: NSQMNGNGTPRLSDLILFDSLVAHMQAVAWANKEGLKWPRKESEDAAGEQSAGTSLTSSSNDPELYSSNESIDDQKLKQDDDGKLSSDLQKYNQLVNELMVKLMNSYQLLSVIVRGQMLKQLSSSTPEKALNLIVPIVSDKPAIMLELHAAFLKLLPNEDKQLIANEWPKCLMVNDFAFNGKQHPVEPYILNVIDAHIIELTRGSNYSTLHTLKHCLKSILQLFELLLPHRTANAEVETQLKQLLISSMLDMRTDYLQGHSEHCLREILSGLTQEAQKLLLYEHMVGYCYRMLKEFAADLRQPQSAGPSGGAPLDQDRAMFNESMLFAVLKTMFKMLEKPVAVQAMRQFFKDQRSGSLTTLLLSFTGTSLPVSYARKMLQFVNRLFQLSLQADSQFQHEDLVECFSELATVDVARLKQWLGHIIYGPNVSTDVSTSEALDTTCRMLTSILQPSSSSSSNAQTPTNMATVSAMPSISDQLDPMEIEYDCGTAAGGGESNPGTGGAAANTSQILSLWQAAQPNPSEESSQACDHSDSERNGALLLSFVKSLVKDQSKASQIAPPLFQALLQLGQTLISPPQEGCDFADVLQIMITLADASPARGHVALFNTTLLWLELAKLQLPDKHLKHAENVSAQLRYLSELLQSIGFRGSRQHNPPWDDELQTDIDELYDELAEEGEQDSLLDDSDEDTLNNKLCTFSQTQKEFMNQHWYHCHTCNMINTVGVCSVCARVCHKGHDVSYAKYGNFFCDCGAKEDGSCQALSRRIGSNEVRDSAGIGSYLPSHMSLLAGKKRSSLPVGQPVLTRKDSLTNERIAVLTKLLEPYRETLQHQDQWLLVVRCILEYFDLLLPSINENCMLYSIVGCHKRATAALERLHLLEQSFQVTDQLMFATLGSQEGAFENVRMNYSGDQGQTIKHLLSSGVVRRVAFCCLSSPHGRRQQLAVSHEKGKVTILQLSALLKQADASKRKLTLTQLSSAPIACTVISLAANPCNEDCLAVCGLKECHILTFSSSGSTNEHIVVNPQLENGNYIKKAVWLPGSQTLLAVVTSDYVKIYDLAVDTYSPKYYYLVAVGKIRDCTFVYQDGNYNMLTFASSGYIYTQQLDQQSLAVHGDFYVTNTLELSHQHIKDIAGHIGGGGVSIYYSHTLQLLFYSYSCGRSFFSPLTNVSEGVKGIYHLDTNSASKSASKGPLQPLVQWTEV
B5: Flag tagged Poe-F3 (aa 2301-3500) (domain or fragment, UniProt Q9VLT5 2301-3500)
chain: TGHPGLVYASMQTSNNPIILMITPERIYLQEIKAQSAKSRIMDVVGIRHAVAGVEKTTLLLLCEDGSLRIFSAQPEYTSFWLSPQVQPFGNQLYSSTLMAKGGGSGSTSKSKSNTASGKMTSRKASQQQKQPTAGGQPVFPIDFFEHCNMLADVEFGGNDLLQIYNKQKLKTRLFSTGMFVASTRSNGFTLEVINNDPNVVIVGIRVLIGTQDVQRAPQSVTILGRTIPTPVRRARWFDIPLTREEMLQSDKLLKVVFAKAPDPEHVTLLDCIEVYGKSKELVGWPDESEDVTVPGSSAPAVSSSQASSANFGEGFNCITQLDRMANHLLEVMDCALHLLGSGVPASMRQKAVKTASALLLLPTPNPVQTQARYVLATLYGTRALYHNYKDGVLLQFVNRELQSMQPKLEKLETLREIDPEAFYRLVLMVRGIANARPQSLAKICVENNYDIVPTLMGIVLELHKVTPTLDEPVNIVKRGLCQPETIVHCLVEIMYGFALADPGQVGRMTKYFIDLLKHDASVISHSAKEALILLLSPRMKRRKVAIVTPPACSTPTPSTSTMQALQAAASSAASDIIEEAAGVVVDGSVGGGGLPEPNADAEGAAVGVGGVGQQQMLNLEAFMGGGFPRLLGLPEDADDEAIMDIAIALSLQQHGGDANALQSLQQGLANLQGIRQATAMAAAVNAAANVSLGGSDDDEGSNVATDGSTLRTSPAEPAGSGGSESGGSGVESIGGTSARSSNFGDHANASPPRQGSTKDDQEQPGPSGVAGSGGVAVLSAMSSSEDNEANEDDKLSKLHDLRIAVLESIIQHLGTFDLCNGLQAIPLIQVILMLTTDLNGNNERDQQVLHDLLTALVDYVEIGKRGAAARMETKCPGNEVRLALLSLFGVLMGKTKSKQTGTTSPPHQFKDNSSFVASTTANVLSKSGAFVYALEALNTLLVHWKNVLGDPYAAGGGLASQSAQASGGASGPGVQLLKPIKHGPKPDISILIPHNYLKNYPDIFESYDGLLTEIIVRLPYQILRLSSAHPDNYDSGFCEAMTFTLCEYMMLNLNTLLRRQVRKLLMYICGSKEKFRMYRDGHSLDAHFRVVKRVCNIVSSKTGAPYNANPPMLSYDALVELTEHLRTCQEISQMRTGNWQKFCVVHEDALAMLMEIACYQLDDGVSPIIIQLLQAAVCNLPPPSGSKQAQPQPSTSSAS

Data on five molecules can be found in doi:10.1101/2022.01.21.477277.

These are yes or no findings as the source states them, for the method shown. In cells and extracts the contact can be indirect. Binding calls can cover weak binding; strength is not graded here. Where a sequence is shown, tags or fusion partners need not be part of it.

For the assay, the target named is GFP tagged N-terminal region of PLP (F1-3), aa 1-1811 (Drosophila). Kind of assay: co-IP.
For the molecule B1, the binding entry is listed as “binds”.

Consider B2, for which the binding entry was “binds”.

For the molecule B3, the binding entry was “binds”.

On to B4, for which the binding result is “binds”.

For the molecule B5, the binding entry is listed as “binds”.
